How the values were obtained:
Format in all cases: cell-based
A549 (lung carcinoma) = test: Sulforhodamine B (SRB) assay, A549; conditions: Homo sapiens, A549, 48 h, read-out: IC50 (µM) A549
Description: (§1) Roswell Park Memorial Institute (RPMI)-1640 medium, Dulbecco’s modified eagle medium high glucose (DMEM; Gibco) supplemented with 10% Fetal Bovine Serum (FBS; Gibco, and 1% antibiotic-antimycotic (Gibco; Anti-Anti 100x), phosphate-buffered saline (PBS; Gibco), 0.25% trypsin (Gibco), sodium pyruvate (Sigma-Aldrich), HEPES (Gibco). Human cancer cell lines A549 (lung carcinoma), MCF-7 (breast carcinoma), MDAMB-231 (breast carcinoma), A375 (melanoma), and normal human embryonic kidney cells (HEK-293) were taken from Dr. Sheikh Tasduq Abdullah and Dr. Boobalan Gopu (CSIR-IIIM).
(§2) Their activity was tested against human cancer cell lines A549 (lung carcinoma), MCF-7 (breast carcinoma), MDAMB-231 (breast carcinoma), and A375 (melanoma). The selectivity index (SI) was calculated against normal human embryonic kidney cells (HEK-293) to determine cytotoxic selectivity. The cells (7 × 10^3 cells/well) were seeded on 96 well plates, followed by overnight incubation. […] The dissolved dye indicating growth inhibition was quantified by calculating optical density at 540 nm via microplate reader (Tecan infinite M200PRO, Switzerland). The IC50 values were calculated using GraphPad Prism Software Version 5.0. […] The selectivity index is calculated by using the formula. […]

MCF-7 (breast carcinoma) = test: Sulforhodamine B (SRB) assay, MCF-7; conditions: Homo sapiens, MCF7, 48 h, read-out: IC50 (µM) MCF-7
Description: as §1, §2

[1] = test system: MDA-MB 231 (breast carcinoma); test: Sulforhodamine B (SRB) assay, MDA-MB 231; conditions: Homo sapiens, MDA-MB-231, 48 h, read-out: IC50 (µM) MDA-MB 231
Description: as §1, §2

[2] = test system: normal human embryonic kidney cells (HEK-293); test: Sulforhodamine B (SRB) assay, normal cells HEK-293; conditions: HEK293, 48 h, normal cell line, mean ± SD (n = 3)
Description: as §1
as §2, with “Sulforhodamine B (SRB), a semi-automated colorimetric assay, was used to evaluate the anti-cancerous properties of indicated colchicine derivatives. Their” for “Their”, “selectivity.” for “selectivity. The cells (7 × 10^3 cells/well) were seeded on 96 well plates, followed by overnight incubation.”

A375 (melanoma) = test: Sulforhodamine B (SRB) assay, A375; conditions: Homo sapiens, A-375, 48 h, read-out: IC50 (µM) A375
Description: as §1, §2

A375 = test: cells; conditions: Homo sapiens, A-375, 48 h, read-out: IC50 (µM) A375, MTT
Description: (§3) Cell viability was assessed using the MTT assay, as outlined in previous studies ([Majeed et al., 2014]; [Amin et al., 2025]). Briefly, A549, A375, MCF-7 and MDA-MB231 cells (10 × 10^3 cells/well) were seeded in 96-well plates and incubated for 24 h at 37°C in a 5% CO2 atmosphere. After this incubation, the cells were treated with test compounds for another 48 h. At 44th hour of treatment, the cells were incubated with MTT (2.5 mg/mL) for additional 4 h. At 48th hour, DMSO was added (100 µL/well), to dissolve formazan crystals. Absorbance was measured at 570 nm. Cell viability was calculated relative to untreated controls. IC50 values were determined from independent triplicate experiments using GraphPad™ Prism 8.0 software. […]

A549 = test: cells; conditions: Homo sapiens, A549, 48 h, read-out: IC50 (µM) A549, MTT
Description: as §3

Structure (SMILES): COc1cc2c(c(OC)c1OC)-c1ccc(OC)c(=O)cc1[C@@H](NC(C)=O)CC2 [Colchicine, reference compound]
- IC50 (A549 (lung carcinoma)): 0.174 ± 0.028 µM
- IC50 (MCF-7 (breast carcinoma)): 4.44 ± 0.28 µM
- IC50 [1]: 4.83 ± 0.31 µM
- IC50 [2]: 0.061 ± 0.002 µM
- IC50 (A375 (melanoma)): 0.076 ± 0.01 µM
- IC50 (A375): 0.022 ± 0.008 µM
- IC50 (A549): 0.21 ± 0.02 µM
